From US10106542B2, “Substituted 6,7-dihydropyrazolo[1,5-a]pyrazines as negative allosteric modulators of mGluR2 receptors” (Janssen Pharmaceutica NV, priority 2013, dated 2018)

Tested on: Wiga rats
Test: Reserpine interaction test in rats
Format: in vivo, rat
Procedure: 4) Reserpine Interaction Test in Rats
It was investigated to what extent the mydriatic action of test compounds was sufficient to counteract the miosis induced by the monoamines-depleting agent reserpine (10 mg/kg; SC) in Wiga rats.
The effects are illustrated in FIG. 3. […] The reference mGlu2 NAMs RO-4995819 (40 mg/kg, p.o.), RO-4491533 (40 mg/kg, p.o.; 10 mg/kg, s.c.) and [CAS 579473-69-1]

Compound: Cc1cc(-c2cnn3c2C(=O)N(c2ccc(C(F)(F)F)cc2)C[C@@H]3C)ccn1 [compound 1, (7S)-7-Methyl-3-(2-methylpyridin-4-yl)-5-[4-(trifluoromethyl)phenyl]-6,7-dihydropyrazolo[1,5-a]pyrazin-4(5H)-one]
- reserpine-induced blockade of the tail-pinch response: did not affect
- scratching or hyperemia after reserpine: did not induce
- tail-pinch response before reserpine: did not affect
